The values that follow come from the supplement of paper PMC6411743.

By UniProt entry, the sequences of proteins in these tests, tags left out. Where a name states a change or a piece, a line headed by the entry shows the natural chain unless it says otherwise.
UniProt Q8NDZ4: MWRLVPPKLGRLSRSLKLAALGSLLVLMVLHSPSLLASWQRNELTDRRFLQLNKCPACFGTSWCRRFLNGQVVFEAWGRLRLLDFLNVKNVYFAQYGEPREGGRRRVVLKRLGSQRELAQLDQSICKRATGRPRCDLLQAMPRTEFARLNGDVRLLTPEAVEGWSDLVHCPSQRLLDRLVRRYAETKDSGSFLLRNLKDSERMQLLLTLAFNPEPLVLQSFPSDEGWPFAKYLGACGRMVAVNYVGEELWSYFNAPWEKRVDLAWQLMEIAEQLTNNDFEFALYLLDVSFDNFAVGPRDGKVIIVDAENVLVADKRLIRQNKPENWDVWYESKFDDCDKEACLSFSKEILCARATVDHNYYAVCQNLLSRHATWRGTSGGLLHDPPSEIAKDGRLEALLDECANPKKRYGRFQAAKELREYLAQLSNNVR
UniProt Q92785, whole entry: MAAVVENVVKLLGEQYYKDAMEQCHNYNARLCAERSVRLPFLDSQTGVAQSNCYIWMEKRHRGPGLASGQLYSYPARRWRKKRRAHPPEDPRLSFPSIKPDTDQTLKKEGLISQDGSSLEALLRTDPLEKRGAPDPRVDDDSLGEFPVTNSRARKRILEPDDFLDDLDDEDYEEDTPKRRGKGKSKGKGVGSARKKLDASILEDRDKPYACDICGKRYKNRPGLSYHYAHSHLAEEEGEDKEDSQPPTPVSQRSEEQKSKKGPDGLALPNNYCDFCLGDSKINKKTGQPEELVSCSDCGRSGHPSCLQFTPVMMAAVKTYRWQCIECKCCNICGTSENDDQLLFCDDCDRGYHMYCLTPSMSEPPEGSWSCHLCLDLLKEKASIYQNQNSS
UniProt Q8WVQ1: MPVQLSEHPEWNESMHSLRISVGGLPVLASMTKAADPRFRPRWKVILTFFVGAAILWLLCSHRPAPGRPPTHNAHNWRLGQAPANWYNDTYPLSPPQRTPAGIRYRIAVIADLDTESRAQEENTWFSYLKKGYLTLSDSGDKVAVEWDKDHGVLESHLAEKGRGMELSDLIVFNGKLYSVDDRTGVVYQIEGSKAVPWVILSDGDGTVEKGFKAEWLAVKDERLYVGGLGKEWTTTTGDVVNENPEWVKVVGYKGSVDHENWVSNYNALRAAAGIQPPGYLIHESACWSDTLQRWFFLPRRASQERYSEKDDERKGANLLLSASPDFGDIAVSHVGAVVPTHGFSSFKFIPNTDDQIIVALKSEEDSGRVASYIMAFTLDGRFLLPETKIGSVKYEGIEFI
UniProt Q8NDX1: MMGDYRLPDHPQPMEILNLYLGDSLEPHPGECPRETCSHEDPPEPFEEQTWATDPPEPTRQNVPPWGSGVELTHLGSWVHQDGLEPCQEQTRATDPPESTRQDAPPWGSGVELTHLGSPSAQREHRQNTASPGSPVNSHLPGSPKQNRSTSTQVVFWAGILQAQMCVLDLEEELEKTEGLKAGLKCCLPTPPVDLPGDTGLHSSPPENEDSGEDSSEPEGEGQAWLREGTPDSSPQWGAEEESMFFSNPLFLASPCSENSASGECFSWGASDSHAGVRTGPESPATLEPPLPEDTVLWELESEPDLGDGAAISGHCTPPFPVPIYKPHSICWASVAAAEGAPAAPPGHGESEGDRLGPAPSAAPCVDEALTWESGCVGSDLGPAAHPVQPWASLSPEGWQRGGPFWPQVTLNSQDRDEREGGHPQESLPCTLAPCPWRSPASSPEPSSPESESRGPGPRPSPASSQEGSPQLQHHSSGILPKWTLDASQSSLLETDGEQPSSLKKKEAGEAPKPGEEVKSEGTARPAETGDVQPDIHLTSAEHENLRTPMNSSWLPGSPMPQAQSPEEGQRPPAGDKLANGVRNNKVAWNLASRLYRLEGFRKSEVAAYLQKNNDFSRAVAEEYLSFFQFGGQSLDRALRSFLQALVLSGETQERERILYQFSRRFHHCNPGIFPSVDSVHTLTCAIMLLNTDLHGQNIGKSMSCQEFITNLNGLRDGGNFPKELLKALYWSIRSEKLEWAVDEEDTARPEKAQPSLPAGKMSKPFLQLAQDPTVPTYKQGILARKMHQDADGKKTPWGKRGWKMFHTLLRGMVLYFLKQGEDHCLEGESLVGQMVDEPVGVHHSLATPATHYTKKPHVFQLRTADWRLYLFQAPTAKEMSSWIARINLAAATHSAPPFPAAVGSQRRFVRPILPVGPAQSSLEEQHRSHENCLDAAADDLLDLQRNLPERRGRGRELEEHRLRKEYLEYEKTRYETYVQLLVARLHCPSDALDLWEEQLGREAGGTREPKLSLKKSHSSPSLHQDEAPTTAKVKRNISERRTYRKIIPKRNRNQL
UniProt Q8WUW1: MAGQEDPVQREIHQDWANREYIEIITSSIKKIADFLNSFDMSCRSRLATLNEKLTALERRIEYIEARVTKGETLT
UniProt Q8NFG4: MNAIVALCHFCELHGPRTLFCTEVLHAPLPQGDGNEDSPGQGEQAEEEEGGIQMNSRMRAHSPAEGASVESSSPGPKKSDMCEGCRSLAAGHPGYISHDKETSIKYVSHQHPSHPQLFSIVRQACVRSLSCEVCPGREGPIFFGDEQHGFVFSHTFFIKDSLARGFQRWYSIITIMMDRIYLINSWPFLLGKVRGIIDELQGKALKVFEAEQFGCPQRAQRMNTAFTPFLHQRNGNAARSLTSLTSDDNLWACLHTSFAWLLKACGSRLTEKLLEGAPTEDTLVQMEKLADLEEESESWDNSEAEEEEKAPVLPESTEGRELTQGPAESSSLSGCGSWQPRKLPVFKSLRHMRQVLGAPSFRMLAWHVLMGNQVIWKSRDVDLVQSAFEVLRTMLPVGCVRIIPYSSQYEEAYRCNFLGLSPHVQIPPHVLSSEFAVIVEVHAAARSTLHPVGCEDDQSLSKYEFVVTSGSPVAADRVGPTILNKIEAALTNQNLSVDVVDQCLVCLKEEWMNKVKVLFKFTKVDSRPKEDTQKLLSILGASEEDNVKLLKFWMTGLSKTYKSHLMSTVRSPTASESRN
UniProt Q8NFY9: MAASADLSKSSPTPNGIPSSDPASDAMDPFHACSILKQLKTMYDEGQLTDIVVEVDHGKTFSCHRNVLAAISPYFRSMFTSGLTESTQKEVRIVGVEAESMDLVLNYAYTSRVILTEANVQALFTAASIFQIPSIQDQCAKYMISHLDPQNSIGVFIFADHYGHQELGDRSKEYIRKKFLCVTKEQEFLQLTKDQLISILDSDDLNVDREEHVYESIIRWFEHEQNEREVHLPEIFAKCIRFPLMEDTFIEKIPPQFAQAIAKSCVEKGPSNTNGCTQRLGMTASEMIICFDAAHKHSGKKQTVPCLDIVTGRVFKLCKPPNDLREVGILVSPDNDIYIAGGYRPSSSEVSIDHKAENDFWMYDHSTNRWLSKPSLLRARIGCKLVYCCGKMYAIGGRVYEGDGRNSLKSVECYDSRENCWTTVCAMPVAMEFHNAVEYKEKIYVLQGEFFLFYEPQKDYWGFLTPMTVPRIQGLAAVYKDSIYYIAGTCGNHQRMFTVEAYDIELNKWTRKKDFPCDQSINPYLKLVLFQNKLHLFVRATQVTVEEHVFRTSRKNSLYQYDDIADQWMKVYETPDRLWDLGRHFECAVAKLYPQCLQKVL
UniProt Q92542, whole entry: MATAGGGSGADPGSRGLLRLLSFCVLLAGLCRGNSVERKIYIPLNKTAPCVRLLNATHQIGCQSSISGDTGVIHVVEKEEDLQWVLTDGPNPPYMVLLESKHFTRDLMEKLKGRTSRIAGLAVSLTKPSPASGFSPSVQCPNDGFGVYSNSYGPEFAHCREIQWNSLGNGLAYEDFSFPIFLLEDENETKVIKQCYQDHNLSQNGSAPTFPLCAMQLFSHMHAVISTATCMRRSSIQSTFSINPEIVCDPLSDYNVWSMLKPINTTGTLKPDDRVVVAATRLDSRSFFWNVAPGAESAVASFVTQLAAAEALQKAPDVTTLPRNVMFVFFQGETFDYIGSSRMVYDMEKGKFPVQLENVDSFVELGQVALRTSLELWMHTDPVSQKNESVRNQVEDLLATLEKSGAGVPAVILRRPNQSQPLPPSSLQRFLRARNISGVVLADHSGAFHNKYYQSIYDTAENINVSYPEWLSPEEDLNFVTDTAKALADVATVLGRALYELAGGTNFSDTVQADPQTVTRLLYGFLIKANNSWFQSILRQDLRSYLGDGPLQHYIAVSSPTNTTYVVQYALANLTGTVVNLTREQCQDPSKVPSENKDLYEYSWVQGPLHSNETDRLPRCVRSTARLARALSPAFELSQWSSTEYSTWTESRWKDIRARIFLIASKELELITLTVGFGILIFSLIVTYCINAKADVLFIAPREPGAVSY
UniProt Q8TAP6: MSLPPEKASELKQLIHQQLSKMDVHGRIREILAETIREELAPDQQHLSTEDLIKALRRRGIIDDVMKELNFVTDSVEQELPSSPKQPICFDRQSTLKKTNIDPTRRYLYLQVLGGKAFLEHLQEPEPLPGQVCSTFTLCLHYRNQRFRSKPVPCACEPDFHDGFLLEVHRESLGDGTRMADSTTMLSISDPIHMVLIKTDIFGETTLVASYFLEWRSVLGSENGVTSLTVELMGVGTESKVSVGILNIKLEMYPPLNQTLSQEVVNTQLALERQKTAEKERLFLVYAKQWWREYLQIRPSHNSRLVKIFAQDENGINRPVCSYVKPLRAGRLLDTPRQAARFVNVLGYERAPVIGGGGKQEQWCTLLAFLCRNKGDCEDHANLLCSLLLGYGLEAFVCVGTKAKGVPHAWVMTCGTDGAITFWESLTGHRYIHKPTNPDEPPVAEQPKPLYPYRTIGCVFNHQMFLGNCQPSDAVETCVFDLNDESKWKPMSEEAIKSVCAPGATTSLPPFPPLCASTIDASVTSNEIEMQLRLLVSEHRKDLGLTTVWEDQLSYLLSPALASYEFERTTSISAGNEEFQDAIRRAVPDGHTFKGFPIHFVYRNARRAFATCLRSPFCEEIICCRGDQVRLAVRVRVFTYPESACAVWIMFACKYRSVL
UniProt Q92696: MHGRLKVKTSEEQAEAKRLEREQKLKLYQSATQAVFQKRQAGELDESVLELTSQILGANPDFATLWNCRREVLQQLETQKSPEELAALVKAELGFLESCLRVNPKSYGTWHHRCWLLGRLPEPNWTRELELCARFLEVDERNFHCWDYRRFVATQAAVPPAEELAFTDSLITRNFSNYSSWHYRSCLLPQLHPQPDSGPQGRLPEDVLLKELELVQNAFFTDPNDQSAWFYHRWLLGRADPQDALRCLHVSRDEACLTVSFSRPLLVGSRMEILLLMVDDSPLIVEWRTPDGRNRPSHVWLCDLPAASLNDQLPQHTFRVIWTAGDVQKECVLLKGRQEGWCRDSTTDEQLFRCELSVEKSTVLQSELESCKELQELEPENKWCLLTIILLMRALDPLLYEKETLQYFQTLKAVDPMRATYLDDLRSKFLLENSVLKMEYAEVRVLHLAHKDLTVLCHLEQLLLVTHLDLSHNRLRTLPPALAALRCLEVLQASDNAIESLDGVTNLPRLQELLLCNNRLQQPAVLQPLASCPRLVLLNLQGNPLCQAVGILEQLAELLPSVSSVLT
UniProt Q8TCB7: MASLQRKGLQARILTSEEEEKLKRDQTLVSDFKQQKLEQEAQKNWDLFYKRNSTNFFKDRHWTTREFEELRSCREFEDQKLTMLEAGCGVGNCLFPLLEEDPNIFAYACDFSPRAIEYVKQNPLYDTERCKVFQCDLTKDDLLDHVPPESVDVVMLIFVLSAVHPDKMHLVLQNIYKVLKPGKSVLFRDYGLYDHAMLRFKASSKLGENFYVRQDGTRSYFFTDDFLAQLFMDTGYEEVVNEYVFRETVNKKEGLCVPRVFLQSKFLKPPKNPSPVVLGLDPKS
UniProt Q8TDH9: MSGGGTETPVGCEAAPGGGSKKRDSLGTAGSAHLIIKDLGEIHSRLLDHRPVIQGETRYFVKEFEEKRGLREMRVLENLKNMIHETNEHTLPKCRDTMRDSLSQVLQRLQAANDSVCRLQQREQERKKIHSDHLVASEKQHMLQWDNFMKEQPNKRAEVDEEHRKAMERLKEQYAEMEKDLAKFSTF

± gives the standard deviation of the averaged measurements. The list shows a part of the results, in another mix than the full data. Most entries show no effect beyond the scatter of the controls.

Compound in this experiment: Nc1ncnc2c1ncn2[C@@H]1O[C@H](COP(=O)(O)OP(=O)(O)NP(=O)(O)O)[C@@H](O)[C@H]1O [adenylyl imidodiphosphate]
Put plainly: NP40-soluble protein abundance relative to vehicle (solubility fold change) (ratio); higher = more soluble protein in presence of AMP-PNP. To be noted: concentration: 0.1mM. A digest of the protocol: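 Data come from three independent experiments in which Dounce-homogenised Jurkat crude lysate was treated at eight concentrations from 0.1 to 10 mM. Treatment ran 10 min at room temperature and then 3 min at 37 °C, after which 0.8% NP40 and benzonase were added for 60 min at 4 °C before ultracentrifugation. The supernatant underwent TMT labelling and LC-MS/MS, and vsn-normalised intensities were expressed as fold change against the detergent-processed vehicle in each replicate.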
With PDCD6IP (UniProt Q8WUM4), the NP40-soluble protein abundance was found to be 0.989 ± 0.02.

As for UniProt Q92845 and related entries, the NP40-soluble protein abundance is 1.002 ± 0.0039. Take UniProt Q8NEZ2 and related entries: the NP40-soluble protein abundance was determined as 0.965 ± 0.042. Next, UBASH3B (UniProt Q8TF42): 1.01 ± 0.041; UniProt Q92616: 1.04 ± 0.021; UniProt Q8TDY2 and related entries: 1.02 ± 0.041. Next, UniProt Q8NDZ4 and related entries: 0.99669 ± 0.00068.

BAP1 (UniProt Q92560): the NP40-soluble protein abundance turned out to be 0.991 ± 0.016.

Regarding UniProt Q8NDI1-2|Q8NDI1-3, the NP40-soluble protein abundance worked out at 0.974 ± 0.032. With UniProt Q92698 and related entries, the NP40-soluble protein abundance came to 1 ± 0.039. As for DPF2 (UniProt Q92785), the NP40-soluble protein abundance worked out at 0.967 ± 0.039. Next, UniProt Q8WVQ1 and related entries: 0.961 ± 0.034; BRI3BP (UniProt Q8WY22): 0.9961 ± 0.0066.

For the target UniProt Q8NDX1 and related entries, the NP40-soluble protein abundance turned out to be 1.004 ± 0.0084. As for UniProt Q8WUW1 and related entries, the NP40-soluble protein abundance worked out at 0.963 ± 0.045.

Regarding UniProt Q8TEP8-3, the NP40-soluble protein abundance turned out to be 0.976 ± 0.015.

On to UniProt Q92581-2|Q92581-3|Q92581, for which the NP40-soluble protein abundance turned out to be 0.9917 ± 0.0092. For UniProt Q8NFG4 and related entries, the NP40-soluble protein abundance is 1.018 ± 0.01. Regarding CNNM3 (UniProt Q8NE01), the NP40-soluble protein abundance stood at 0.997 ± 0.032. For MITD1 (UniProt Q8WV92), the NP40-soluble protein abundance was 1.01 ± 0.012. Next, KBTBD8 (UniProt Q8NFY9): 0.973 ± 0.011; UniProt Q8TEQ8 and related entries: 0.993 ± 0.018; GGH (UniProt Q92820): 1.01 ± 0.029.

Consider ABHD11 (UniProt Q8NFV4), for which the NP40-soluble protein abundance was 1.01 ± 0.053. For UniProt Q92542 and related entries, the NP40-soluble protein abundance was 0.9698 ± 0.0093. Next, RNF214 (UniProt Q8ND24): 0.994 ± 0.024; FAM3C (UniProt Q92520): 0.95 ± 0.018.

Regarding UniProt Q8TAP6 and related entries, the NP40-soluble protein abundance was determined as 0.999 ± 0.023. For the target UniProt Q8WU10 and related entries, the NP40-soluble protein abundance turned out to be 0.998 ± 0.03. With RABGGTA (UniProt Q92696), the NP40-soluble protein abundance was found to be 1.02 ± 0.049. SPRYD4 (UniProt Q8WW59): the NP40-soluble protein abundance stood at 0.998 ± 0.018. Regarding UniProt Q8TCB7 and related entries, the NP40-soluble protein abundance is 0.996 ± 0.018.

For CADM4 (UniProt Q8NFZ8), the NP40-soluble protein abundance was 1 ± 0.026.

WDR48 (UniProt Q8TAF3): the NP40-soluble protein abundance was determined as 1.05 ± 0.039.

In the case of ANKS1A (UniProt Q92625), the NP40-soluble protein abundance was determined as 1.02 ± 0.032. For the target UniProt Q8TDH9, the NP40-soluble protein abundance came to 1.02 ± 0.031. With RAB8B (UniProt Q92930), the NP40-soluble protein abundance is 0.983 ± 0.035. Next, TTL (UniProt Q8NG68): 1.04 ± 0.015.
